Assay results published in PubChem BioAssay AID248 (DTP/NCI, 2004).
The list does not hold the whole screen: it gathers tests that were run many times, whatever their T/C, doses with no T/C, and many T/C values between a quarter and a half above the control. Further doses and runs are listed elsewhere. T/C gives the treated animals as a percentage of the vehicle group. Some entries give survivors of the animals treated and no T/C: the source files T/C as zero there, which appears to mark a toxic dose or a test without result, not a measured value. Some survivor counts are full or nearly so, which does not show that the dose was tolerated: survival well below the control is almost never listed, so the zero probably covers shortened survival too. Counts of survivors are from the toxicity check (mostly the fifth day) where no day follows; animals may have died later. Schedule codes are those of the source, taken here to give the interval after Q, in days (D) or hours (H), and the number of doses after X. Some entries hold several experiments; the values are given in rising order. Some schedule codes hold Z or #, which are not explained here. Where survival is the endpoint, this PubChem deposit counts one and a half times the control or more as active, and values a quarter to a half above the control carry no call in these data; other NCI protocols may use other cut-offs. Some T/C values are followed by the survivors on the day toxicity was checked, most often the fifth; where none is given, no animal had died by that day.

Tested on: L1210 leukemia ip in BDF1 mice, survival T/C
Experiment: NCI In Vivo Anticancer Drug Screen. Data for tumor model L1210 Leukemia (intraperitoneal) in B6D2F1 (BDF1) mice
Conditions: T/C endpoint: mean survival time, higher T/C = longer survival
[1] = dose: 400.0 mg/kg/injection, schedule: Q04DX002 (ip), vehicle: Klucel (hydroxypropylcellulose) (HPC)
[2] = dose: 75.0 mg/kg/injection, schedule: Q01DX001 (ip), vehicle: saline
[3] = dose: 150.0 mg/kg/injection, schedule: Q01DX001 (ip), vehicle: saline
[4] = dose: 300.0 mg/kg/injection, schedule: Q01DX001 (ip), vehicle: saline
[5] = dose: 300.0 mg/kg/injection, schedule: Q01DX001 (ip), vehicle: carboxymethylcellulose (CMC)
[6] = dose: 400.0 mg/kg/injection, schedule: Q01DX001 (ip), vehicle: saline
[7] = dose: 50.0 mg/kg/injection, schedule: Q01DX009 (ip), vehicle: Klucel (hydroxypropylcellulose) (HPC)
[8] = dose: 400.0 mg/kg/injection, schedule: Q04DX003 (ip), vehicle: Klucel (hydroxypropylcellulose) (HPC)
[9] = dose: 400.0 mg/kg/injection, schedule: Q01DX009 (ip), vehicle: Klucel (hydroxypropylcellulose) (HPC)
[10] = dose: 400.0 mg/kg/injection, schedule: Q01DX009 (ip), vehicle: saline with Tween-80
[11] = dose: 100.0 mg/kg/injection, schedule: Q04DX003 (ip), vehicle: Klucel (hydroxypropylcellulose) (HPC)

For `NC(CCl)=NCC1CCCCCC1`, which survivor count (dose: 100.0 mg/kg/injection, schedule: Q04DX002 (ip), vehicle: Klucel (hydroxypropylcellulose) (HPC)) is on record?
The survivor count was 1 of 3.

What about the survivor count (dose: 200.0 mg/kg/injection, schedule: Q04DX002 (ip), vehicle: Klucel (hydroxypropylcellulose) (HPC)) of the same compound?
Its survivor count is 0 of 3.

And the survivor count [1]?
Its survivor count is 0 of 3.

For `C[n+]1cccc2cccc(N)c21`, which survivor count (dose: 100.0 mg/kg/injection, schedule: Q01DX001 (ip), vehicle: other) is on record?
The survivor count was 1 of 4.

What about the survivor count (dose: 200.0 mg/kg/injection, schedule: Q01DX001 (ip), vehicle: other) of the same compound?
Its survivor count is 1 of 4.

What about the survivor count (dose: 400.0 mg/kg/injection, schedule: Q01DX001 (ip), vehicle: other) of the same compound?
Its survivor count is 0 of 4.

Which results are given for `NP(O)(O)=S`?
survivor count (dose: 37.5 mg/kg/injection, schedule: Q01DX001 (ip), vehicle: saline): 2 of 6; survivor count [2]: 1 of 6; survivor count [3]: 0 of 6; survivor count [4]: 0 of 6

With `CCCCCC(CN(C)C)C(=O)/C=C/c1ccccc1` (stereo not drawn) as the compound, how does the survivor count (dose: 200.0 mg/kg/injection, schedule: Q01DX009 (sc), vehicle: other) read?
Its survivor count is 0 of 6.

What about the survivor count (dose: 400.0 mg/kg/injection, schedule: Q04DX003 (sc), vehicle: other) of the same compound?
Its survivor count is 1 of 6.

How did the survivor count (dose: 100.0 mg/kg/injection, schedule: Q04DX003 (ip), vehicle: saline with Tween-80) turn out when `Cc1ccc(/C=C2\CC(C)(C)c3ccccc3C2=O)cc1` was run?
Its survivor count is 0 of 6.

For `O=C(NC(=S)Nc1ccccc1)c1cccc(Cl)c1`, which survivor count [5] is on record?
The survivor count was 1 of 6.

Which survivor count [6] does the source give for `CCCCCC[Si](Cl)(CCCCCC)CCCCCC` here?
The survivor count was 1 of 6.

How did the survivor count (dose: 400.0 mg/kg/injection, schedule: Q04DX003 (ip), vehicle: other) turn out when `Cc1ccc(/C=N/N)s1` was run?
Its survivor count is 6 of 6.

With `[Cu+2].[NH-]C(CC(=O)O)C(=O)O.[NH-]C(CC(=O)O)C(=O)O` (stereo not drawn) as the compound, how does the survivor count [2] read?
Its survivor count is 0 of 6.

And the survivor count (dose: 80.0 mg/kg/injection, schedule: Q01DX001 (ip), vehicle: saline)?
The survivor count was 1 of 6.

And the survivor count [3]?
Its survivor count is 0 of 6.

And the survivor count [4]?
The survivor count was 0 of 6.

How did the survivor count (dose: 100.0 mg/kg/injection, schedule: Q01DX001 (ip), vehicle: saline with Tween-80) turn out when `CN(C)c1ccc(I)cc1` was run?
The survivor count was 0 of 3 and 1 of 3.

And the survivor count (dose: 200.0 mg/kg/injection, schedule: Q01DX001 (ip), vehicle: saline with Tween-80)?
The survivor count was 0 of 3.

What about the survivor count (dose: 400.0 mg/kg/injection, schedule: Q01DX001 (ip), vehicle: saline with Tween-80) of the same compound?
The survivor count was 0 of 3.

With `O=S1(=O)C2C=CCC1C(Cl)CC2` (stereo not drawn) as the compound, how does the survivor count [7] read?
Its survivor count is 1 of 6.

What about the survivor count (dose: 100.0 mg/kg/injection, schedule: Q01DX001 (ip), vehicle: Klucel (hydroxypropylcellulose) (HPC)) of the same compound?
Its survivor count is 0 of 6.

What about the survivor count (dose: 200.0 mg/kg/injection, schedule: Q01DX001 (ip), vehicle: Klucel (hydroxypropylcellulose) (HPC)) of the same compound?
The survivor count was 1 of 6.

What about the survivor count (dose: 400.0 mg/kg/injection, schedule: Q01DX001 (ip), vehicle: Klucel (hydroxypropylcellulose) (HPC)) of the same compound?
The survivor count was 0 of 6.

Which survivor count (dose: 200.0 mg/kg/injection, schedule: Q04DX003 (ip), vehicle: saline with Tween-80) does the source give for `Cc1ccc[n+](CCc2c[nH]c3ccccc23)c1` here?
Its survivor count is 0 of 6.

And the survivor count (dose: 400.0 mg/kg/injection, schedule: Q04DX003 (ip), vehicle: saline with Tween-80)?
Its survivor count is 0 of 6.

With `CCCCS(=O)(=O)N(CC)CC` as the compound, how does the survivor count (dose: 400.0 mg/kg/injection, schedule: Q01DX009 (ip), vehicle: carboxymethylcellulose (CMC)) read?
Its survivor count is 5 of 6.

`Nc1nc(N)nc(CCP(CCc2nc(N)nc(N)n2)CCc2nc(N)nc(N)n2)n1` was tested. Which survivor count [8] did it give?
The survivor count was 2 of 6.

With `C[P+]1(c2ccccc2)C2C=CC=CC1C=C2` (stereo not drawn) as the compound, how does the survivor count (dose: 40.0 mg/kg/injection, schedule: Q01DX001 (ip), vehicle: carboxymethylcellulose (CMC)) read?
The survivor count was 0 of 6.

What about the survivor count (dose: 50.0 mg/kg/injection, schedule: Q01DX001 (ip), vehicle: carboxymethylcellulose (CMC)) of the same compound?
The survivor count was 1 of 4.

And the survivor count (dose: 80.0 mg/kg/injection, schedule: Q01DX001 (ip), vehicle: carboxymethylcellulose (CMC))?
The survivor count was 0 of 6.

And the survivor count (dose: 100.0 mg/kg/injection, schedule: Q01DX001 (ip), vehicle: carboxymethylcellulose (CMC))?
Its survivor count is 0 of 4.

And the survivor count (dose: 200.0 mg/kg/injection, schedule: Q01DX001 (ip), vehicle: carboxymethylcellulose (CMC))?
The survivor count was 0 of 4.

What about the survivor count (dose: 400.0 mg/kg/injection, schedule: Q01DX001 (ip), vehicle: carboxymethylcellulose (CMC)) of the same compound?
Its survivor count is 0 of 4.

Which results are given for `CSc1nccc(=O)[nH]1`?
survivor count (dose: 200.0 mg/kg/injection, schedule: Q01DX009 (ip), vehicle: Klucel (hydroxypropylcellulose) (HPC)): 2 of 6; survivor count [8]: 0 of 6

For `ClC(Cl)(Cl)c1cccc(C(Cl)(Cl)Cl)c1`, which survivor count [9] is on record?
The survivor count was 6 of 6.

Which survivor count [1] does the source give for `CC1CN(CC2CCCCCCCCCCC2=O)CC(C)O1` (stereo not drawn) here?
Its survivor count is 0 of 3.

How did the survivor count (dose: 400.0 mg/kg/injection, schedule: Q01DX009 (ip), vehicle: gum acacia) turn out when `C=CCc1cc(Cl)ccc1OCC(=O)O` was run?
Its survivor count is 0 of 6.

Which survivor count [3] does the source give for `CC=C=[CH][Sn]([CH2]CC)([CH2]CC)[CH2]CC` here?
The survivor count was 2 of 6.

What about the survivor count [4] of the same compound?
The survivor count was 0 of 6.

`N#CCSc1ncnc2nc[nH]c12` was tested. Which T/C (dose: 120.0 mg/kg/injection, schedule: Q01DX010 (ip), vehicle: saline) did it give?
The T/C was 125 and 130 % of control.

And the T/C (dose: 125.0 mg/kg/injection, schedule: Q01DX Z (ip), vehicle: carboxymethylcellulose (CMC))?
Its T/C is 141 % of control [4 of 6 alive].

And the survivor count (dose: 250.0 mg/kg/injection, schedule: Q01DX Z (ip), vehicle: carboxymethylcellulose (CMC))?
Its survivor count is 0 of 6.

What about the survivor count (dose: 500.0 mg/kg/injection, schedule: Q01DX Z (ip), vehicle: carboxymethylcellulose (CMC)) of the same compound?
Its survivor count is 0 of 6.

How did the survivor count [10] turn out when `O=[N+]([O-])c1cc(Cl)ccc1N1CCCC1` was run?
Its survivor count is 3 of 6.

`[Cl][Rh][Cl].c1cn[nH]c1.c1cn[nH]c1.c1cn[nH]c1.c1cn[nH]c1` was tested. Which survivor count [7] did it give?
Its survivor count is 5 of 6.

And the survivor count [11]?
The survivor count was 2 of 6.

And the survivor count (dose: 200.0 mg/kg/injection, schedule: Q04DX003 (ip), vehicle: Klucel (hydroxypropylcellulose) (HPC))?
Its survivor count is 0 of 6.

What about the survivor count [8] of the same compound?
The survivor count was 0 of 6.

With `Cc1nc(N)c2nonc2n1` as the compound, how does the survivor count (dose: 200.0 mg/kg/injection, schedule: Q01DX009 (ip), vehicle: saline with Tween-80) read?
The survivor count was 6 of 6.

And the survivor count [10]?
The survivor count was 3 of 6.

`N#Cc1cc(C#N)c(Cl)nc1N` was tested. Which survivor count [9] did it give?
The survivor count was 4 of 6.

How did the survivor count [5] turn out when `O=C(O)c1ccccc1-c1ccccc1C(=O)Nc1ccc2c(c1)Cc1cc(F)ccc1-2` was run?
Its survivor count is 0 of 6.

How did the T/C (dose: 0.92 mg/kg/injection, schedule: Q01DX009 (ip), vehicle: saline) turn out when `C1OC1CN1CCC(C2CCN(CC3CO3)CC2)CC1` (stereo not drawn) was run?
The T/C was 135 % of control.

What about the T/C (dose: 1.4 mg/kg/injection, schedule: Q01DX009 (ip), vehicle: saline) of the same compound?
Its T/C is 138 % of control.

And the T/C (dose: 3.3 mg/kg/injection, schedule: Q01DX009 (ip), vehicle: saline)?
The T/C was 135 % of control.

And the T/C (dose: 4.9 mg/kg/injection, schedule: Q01DX009 (ip), vehicle: saline)?
Its T/C is 138 % of control.

What about the T/C (dose: 7.0 mg/kg/injection, schedule: Q01DX009 (ip), vehicle: saline) of the same compound?
Its T/C is 146 % of control.

What about the T/C (dose: 10.0 mg/kg/injection, schedule: Q01DX001 (ip), vehicle: saline) of the same compound?
The T/C was 145 % of control.

And the T/C (dose: 12.5 mg/kg/injection, schedule: Q01DX001 (ip), vehicle: saline)?
The T/C was 139 % of control.

And the T/C (dose: 15.0 mg/kg/injection, schedule: Q01DX001 (ip), vehicle: saline)?
Its T/C is 141 % of control.

What about the T/C (dose: 25.0 mg/kg/injection, schedule: Q01DX001 (ip), vehicle: saline) of the same compound?
Its T/C is 136 % of control.

And the T/C (dose: 30.0 mg/kg/injection, schedule: Q01DX001 (ip), vehicle: saline)?
The T/C was 141 % of control.

And the survivor count (dose: 60.0 mg/kg/injection, schedule: Q01DX009 (ip), vehicle: saline)?
Its survivor count is 6 of 6.

What about the survivor count (dose: 100.0 mg/kg/injection, schedule: Q01DX001 (ip), vehicle: saline) of the same compound?
The survivor count was 2 of 6.

What about the survivor count (dose: 120.0 mg/kg/injection, schedule: Q01DX001 (ip), vehicle: saline) of the same compound?
The survivor count was 4 of 6.

And the survivor count (dose: 200.0 mg/kg/injection, schedule: Q01DX001 (ip), vehicle: saline)?
Its survivor count is 0 of 6.

What about the survivor count [6] of the same compound?
Its survivor count is 0 of 6.

`NC(N)=Nc1nc2ccccc2s1` was tested. Which survivor count [11] did it give?
Its survivor count is 4 of 6.
